Data published in paper PMC9420157.
Results are given in words; binding and its absence hold for the method and conditions named. Binding seen in cells or lysates may run through a third protein. Some results given as binding are weak or reduced against the parent protein; the word gives no strength.

Protein sequences, listed by entry. Tags and fused reporters are not part of them. Lines headed by an entry give the natural chain unless they say otherwise; changes in a name come on top.
UniProt P12956: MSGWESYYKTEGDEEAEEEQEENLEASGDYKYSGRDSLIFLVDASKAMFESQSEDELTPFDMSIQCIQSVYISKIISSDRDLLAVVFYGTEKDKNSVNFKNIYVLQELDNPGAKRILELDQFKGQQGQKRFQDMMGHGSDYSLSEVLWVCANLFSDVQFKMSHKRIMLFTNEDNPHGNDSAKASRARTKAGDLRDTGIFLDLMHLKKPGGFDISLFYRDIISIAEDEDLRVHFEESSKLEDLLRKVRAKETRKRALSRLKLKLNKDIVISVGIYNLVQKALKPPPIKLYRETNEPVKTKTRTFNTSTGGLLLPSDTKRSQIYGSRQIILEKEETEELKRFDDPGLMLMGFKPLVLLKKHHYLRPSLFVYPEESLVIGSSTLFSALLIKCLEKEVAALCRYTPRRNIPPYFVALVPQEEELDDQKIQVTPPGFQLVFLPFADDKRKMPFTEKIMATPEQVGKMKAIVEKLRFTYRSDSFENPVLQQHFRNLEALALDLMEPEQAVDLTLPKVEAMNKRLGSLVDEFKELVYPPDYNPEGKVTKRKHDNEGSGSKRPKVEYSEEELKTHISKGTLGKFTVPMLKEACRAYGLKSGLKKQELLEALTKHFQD
UniProt P13010: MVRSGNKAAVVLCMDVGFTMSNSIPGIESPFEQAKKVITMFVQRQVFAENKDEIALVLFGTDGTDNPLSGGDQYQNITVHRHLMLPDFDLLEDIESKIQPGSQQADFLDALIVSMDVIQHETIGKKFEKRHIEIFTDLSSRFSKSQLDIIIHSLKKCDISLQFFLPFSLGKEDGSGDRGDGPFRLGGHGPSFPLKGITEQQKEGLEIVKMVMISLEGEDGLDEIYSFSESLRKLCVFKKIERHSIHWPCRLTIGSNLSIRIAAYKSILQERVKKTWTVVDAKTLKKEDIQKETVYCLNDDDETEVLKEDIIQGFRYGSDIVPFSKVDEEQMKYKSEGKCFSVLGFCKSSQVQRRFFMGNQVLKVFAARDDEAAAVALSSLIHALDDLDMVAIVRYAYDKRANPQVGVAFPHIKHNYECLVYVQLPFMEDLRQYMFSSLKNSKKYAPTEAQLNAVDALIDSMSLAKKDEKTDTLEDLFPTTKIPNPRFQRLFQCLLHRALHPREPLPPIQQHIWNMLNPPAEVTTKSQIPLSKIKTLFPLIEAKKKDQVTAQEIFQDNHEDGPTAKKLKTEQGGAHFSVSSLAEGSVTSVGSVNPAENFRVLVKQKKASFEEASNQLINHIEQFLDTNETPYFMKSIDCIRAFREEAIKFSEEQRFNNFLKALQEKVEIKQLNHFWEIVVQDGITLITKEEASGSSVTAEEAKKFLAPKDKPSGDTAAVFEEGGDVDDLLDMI

Key:
[1] = target: T1, MRE11 (human (endogenous in HeLa)) (UniProt P49959); test: co-IP; co-immunoprecipitation (Supplementary Fig. 4d); cells, bait and conditions not shown
T1 sequence: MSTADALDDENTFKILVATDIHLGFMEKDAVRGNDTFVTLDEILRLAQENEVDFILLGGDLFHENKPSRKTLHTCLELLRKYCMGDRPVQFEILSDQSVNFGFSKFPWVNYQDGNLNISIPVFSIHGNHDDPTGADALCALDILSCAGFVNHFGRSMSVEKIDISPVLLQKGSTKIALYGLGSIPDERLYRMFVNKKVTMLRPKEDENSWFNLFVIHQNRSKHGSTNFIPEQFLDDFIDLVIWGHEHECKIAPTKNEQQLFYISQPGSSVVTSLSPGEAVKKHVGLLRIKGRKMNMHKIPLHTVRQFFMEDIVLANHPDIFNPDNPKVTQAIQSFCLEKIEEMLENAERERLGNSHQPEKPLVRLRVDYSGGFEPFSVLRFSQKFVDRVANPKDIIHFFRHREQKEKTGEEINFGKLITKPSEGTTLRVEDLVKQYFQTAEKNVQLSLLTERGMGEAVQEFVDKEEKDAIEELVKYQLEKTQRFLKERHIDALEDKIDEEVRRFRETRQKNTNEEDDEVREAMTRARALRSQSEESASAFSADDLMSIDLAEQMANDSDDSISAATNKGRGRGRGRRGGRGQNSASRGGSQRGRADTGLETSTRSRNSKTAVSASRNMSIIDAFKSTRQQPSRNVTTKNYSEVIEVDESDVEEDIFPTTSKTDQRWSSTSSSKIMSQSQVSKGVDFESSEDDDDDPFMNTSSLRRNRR

[2] = target: KU complex, a heterodimer composed of the KU70 (XRCC6) and KU80 (XRCC5) proteins (human (endogenous in HeLa)) (UniProt P12956+P13010); test: proximity ligation; Duolink PLA on permeabilised, fixed HeLa cells (wildtype and BRCA2-knockout), untreated or 4 mM HU for 3 h; primary antibodies to the two endogenous proteins; HeLa-PARP14 knockout cells as specificity control
[3] = target: T1, MRE11 (human (endogenous in HeLa)); test: as above

Measured: binding

PARP14 (from UniProt Q460N5 1-1801) (enzyme)
binds: [1] | [2] | [3]
